Laboratory results reported in article PMC11277750.
No constants are given. Whether binding was seen depends on the method and setting. Binding seen in cells or lysates may run through a third protein. Binding calls can cover weak binding; strength is not graded here.

Chains of the proteins cited; added tags and fusions are not shown. Lines headed by an entry give the natural chain unless they say otherwise; changes in a name come on top.
UniProt Q80TN5: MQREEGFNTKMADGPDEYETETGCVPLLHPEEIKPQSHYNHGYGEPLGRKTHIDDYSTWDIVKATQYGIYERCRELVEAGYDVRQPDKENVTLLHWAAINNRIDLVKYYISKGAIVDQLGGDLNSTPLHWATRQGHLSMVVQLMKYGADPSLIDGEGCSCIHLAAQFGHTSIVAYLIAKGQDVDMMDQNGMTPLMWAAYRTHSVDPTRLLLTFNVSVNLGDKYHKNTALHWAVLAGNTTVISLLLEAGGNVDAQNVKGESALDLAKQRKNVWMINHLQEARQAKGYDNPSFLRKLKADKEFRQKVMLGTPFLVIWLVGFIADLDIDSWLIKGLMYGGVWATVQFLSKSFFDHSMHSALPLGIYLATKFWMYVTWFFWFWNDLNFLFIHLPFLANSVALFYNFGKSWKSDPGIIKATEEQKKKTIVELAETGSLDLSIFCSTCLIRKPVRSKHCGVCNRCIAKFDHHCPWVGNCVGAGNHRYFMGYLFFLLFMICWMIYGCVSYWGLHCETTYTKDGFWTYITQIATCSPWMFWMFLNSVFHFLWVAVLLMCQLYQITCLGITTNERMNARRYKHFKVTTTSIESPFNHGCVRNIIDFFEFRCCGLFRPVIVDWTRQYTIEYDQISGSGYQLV
UniProt O15105: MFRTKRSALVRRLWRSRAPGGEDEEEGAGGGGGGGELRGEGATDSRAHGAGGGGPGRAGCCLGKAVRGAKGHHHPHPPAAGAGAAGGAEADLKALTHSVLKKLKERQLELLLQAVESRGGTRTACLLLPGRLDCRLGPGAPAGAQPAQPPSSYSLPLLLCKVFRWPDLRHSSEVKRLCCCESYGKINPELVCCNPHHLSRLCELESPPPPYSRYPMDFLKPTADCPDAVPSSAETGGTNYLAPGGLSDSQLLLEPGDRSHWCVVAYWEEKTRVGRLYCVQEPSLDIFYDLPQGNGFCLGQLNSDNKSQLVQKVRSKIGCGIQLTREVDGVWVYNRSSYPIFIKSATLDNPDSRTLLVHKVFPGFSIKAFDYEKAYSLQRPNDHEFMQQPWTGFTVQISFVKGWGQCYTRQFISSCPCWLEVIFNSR

Target: HA-zDHHA17 (catalytically inactive C467A zDHHC17 mutant) (UniProt Q80TN5)
Assay: co-IP; HEK293T cells transfected with HA-zDHHC17 constructs and Flag-Smad7 constructs, with or without 5 ng/ml TGF-β1 for 30 min; lysis in 1% Triton X-100, 10% glycerol, 20 mM Tris-HCl pH 7.5, 150 mM NaCl; IP with an HA antibody or control IgG on Dynabeads overnight, IB with Flag or HA antibodies

“Flag-tagged wt Smad7 (from UniProt O15105 1-426)” was tested, and the binding was “binds”.
